PubChem BioAssay AID1671195 | Yale University | 2021
The whole screen tested about 22,000 reagents; below is an unselected part. Over the whole deposit, about 1,510 (6.9%) are marked active. 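Active includes knockdowns raising or lowering LDL uptake; positive z-scores mean more uptake, negative mean less.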 A number with no mark means an inactive call.

Test: 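Knockdowns that increase or decrease uptake of fluorescent LDL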 (primary screen)
Cell system: human Huh7 hepatoma cells
Knock-down reagent: siRNA pool against human genes, 18 nM
Duration: about 2 to 2.5 days of knockdown, then 8 h LDL uptake
Treatment: DiI-labelled LDL at 30 µg/ml for 8 h, in lipoprotein-deficient serum medium
Measurement: 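Fluorescent LDL signal imaged in cells, scaled to the plate median, robust z-score for each replicate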
Direction: robust z-score: higher = more LDL uptake after knockdown
Hit rule: 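Active when two or more replicates show a robust z-score above 2 or below -2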

| gene | robust z-score, replicate 1 | robust z-score, replicate 2 | robust z-score, replicate 3 |
| --- | --- | --- | --- |
| LAMA1 | 0.0657 | 0.267 | 0.296 |
| IFTAP | 0.12 | -0.233 | -0.239 |
| SEPHS2 | 1.72 | 1.37 | 2.19 |
| MTO1 | 2.35 (active) | 1.24 | 2.64 |
| BTBD3 | 0.0644 | -0.317 | 0.239 |
| RNF4 | -1.59 | -1.59 | -1.75 |
| CDCA7 | -0.929 | -0.801 | -0.991 |
| OR5M8 | 1.55 | 1.96 | 2.08 |
| PTPRR | -2.2 (active) | -1.97 | -2.39 |
| HDGFL3 | 2.17 | 0.806 | 1.78 |
| GPATCH11P1 | -1.47 | -1.14 | -1.51 |
| TUFT1 | 1.7 | -0.815 | -0.271 |
| NUP58 | 0.215 | 0.781 | 0.474 |
| HPCA | -0.181 | 0.0961 | 0.306 |
| OCSTAMP | 1.12 | 1.03 | 1.41 |
| INPP4B | -0.314 | 0.765 | 0.0989 |
| CST6 | 0.229 | -0.325 | -0.217 |
| LOC442277 (retired record) | 0.626 | 0.448 | 0.572 |
| ARAP2 | 1.47 | 1.32 | 1.22 |
| NPHP3 | -1.19 | -0.809 | 0.305 |
| RAB40A | 0.679 | -0.602 | -0.561 |
| NOTCH4 | 0.361 | 0.724 | 0.391 |
| IFT52 | -0.352 | -1.32 | 0.198 |
| LINC00615 | -0.156 | 0.423 | 0.307 |
| TRPM1 | -1.27 | -1.76 | -1.57 |
| COL6A5 | -0.905 | -0.455 | -0.894 |
| SPATA6L | 1.02 | 1.31 | 2.63 |
| SLIRP | -0.235 | -0.427 | -0.887 |
| AMER3 | -0.516 | -0.528 | -0.488 |
| RPSA | 0.553 | 0.472 | 0.0638 |
| RWDD3 | 0.552 | 0.697 | 0.0225 |

Already shown: entries from further up.
| gene | robust z-score, replicate 1 | robust z-score, replicate 2 | robust z-score, replicate 3 |
| --- | --- | --- | --- |
| NPHP3 | -1.19 | -0.809 | 0.305 |
| RAB40A | 0.679 | -0.602 | -0.561 |
| NOTCH4 | 0.361 | 0.724 | 0.391 |
| IFT52 | -0.352 | -1.32 | 0.198 |
| LINC00615 | -0.156 | 0.423 | 0.307 |
| TRPM1 | -1.27 | -1.76 | -1.57 |
| COL6A5 | -0.905 | -0.455 | -0.894 |

Next reagents follow.
| gene | robust z-score, replicate 1 | robust z-score, replicate 2 | robust z-score, replicate 3 |
| --- | --- | --- | --- |
| TFAP2B | -1.24 | -1.19 | -0.927 |
| KHNYN | -0.647 | 1.51 | -1.61 |
| BUD13 | -1.25 | -1.33 | -1.58 |
| TUBGCP6 | -0.244 | -1.06 | -0.584 |
| USP49 | -1.16 | -1.5 | -1.23 |
| RNF103 | 0.0165 | 0.773 | 0.73 |
| URM1 | 0.0199 | -0.123 | 0.555 |
| TSC22D1 | -1.48 | -1.37 | -1.5 |
| SPAG5 | 1.41 | 0.0981 | 2.51 |
| NEXN-AS1 | -1.45 | -0.736 | -1.14 |
| CITED1 | 0.526 | -2.02 | -1.47 |
| ACR | 0.147 | -0.333 | -0.779 |
| SERTAD3 | 2.65 (active) | 2.33 | 1.47 |
| SNAPC4 | -0.0236 | 0.0377 | -0.0623 |
| CYP7A1 | -1.73 | -0.902 | -1.52 |
| ASB4 | -0.448 | -0.248 | 0.173 |
| POLRMT | -0.379 | -0.588 | -0.176 |
| ZSCAN31 | -0.7 | -0.837 | -0.321 |
| CARD11 | 2.05 (active) | 2.3 | 1.57 |
| FAM221B | -0.434 | -1.18 | -1.04 |
| APOL2 | 0.0844 | 0.00599 | -0.395 |
| WDR73 | 1.04 | 0.309 | 0.515 |
| MAP3K11 | -0.478 | 0.437 | -0.00241 |
| TMPRSS11D | 0.0092 | -0.402 | -0.258 |
| CDK14 | -0.0524 | 1.51 | 0.18 |
| IPO13 | 0.577 | 0.0322 | 0.693 |
| KRT24 | 0.76 | 0.27 | 0.466 |
| HEMGN | 1.42 | 0.382 | 1.46 |
| HDAC5 | 1.06 | 0.208 | -0.229 |
| LOC440889 (retired record) | -0.334 | -0.318 | -0.423 |
| DGAT1 | -0.0825 | -0.857 | -0.69 |
| DOHH | 3.63 (active) | 2.37 | 2.58 |
| TFR2 | 1.77 | 1.52 | 1.63 |
| CYSTM1 | -1.78 | -1.38 | -2.13 |
| STYX | -0.487 | 1.02 | 0.552 |
| NSD3 | -1.72 | -0.571 | -0.661 |
| PTN | -0.0401 | 0.415 | 0.124 |
